The text below walks through data of PMC9852476.

Sequences of proteins named here, by UniProt entry; tags and fusion partners are left off. Residues count along the entry.
UniProt Q99623: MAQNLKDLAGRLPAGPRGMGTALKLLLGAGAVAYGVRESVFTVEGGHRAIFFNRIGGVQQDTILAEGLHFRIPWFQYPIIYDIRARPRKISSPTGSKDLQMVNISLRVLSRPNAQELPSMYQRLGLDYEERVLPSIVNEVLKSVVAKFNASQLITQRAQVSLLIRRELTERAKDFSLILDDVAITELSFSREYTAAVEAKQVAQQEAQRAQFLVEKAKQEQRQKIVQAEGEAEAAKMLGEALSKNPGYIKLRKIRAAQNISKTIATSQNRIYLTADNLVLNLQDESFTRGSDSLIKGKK
UniProt P28331, residues 24-727: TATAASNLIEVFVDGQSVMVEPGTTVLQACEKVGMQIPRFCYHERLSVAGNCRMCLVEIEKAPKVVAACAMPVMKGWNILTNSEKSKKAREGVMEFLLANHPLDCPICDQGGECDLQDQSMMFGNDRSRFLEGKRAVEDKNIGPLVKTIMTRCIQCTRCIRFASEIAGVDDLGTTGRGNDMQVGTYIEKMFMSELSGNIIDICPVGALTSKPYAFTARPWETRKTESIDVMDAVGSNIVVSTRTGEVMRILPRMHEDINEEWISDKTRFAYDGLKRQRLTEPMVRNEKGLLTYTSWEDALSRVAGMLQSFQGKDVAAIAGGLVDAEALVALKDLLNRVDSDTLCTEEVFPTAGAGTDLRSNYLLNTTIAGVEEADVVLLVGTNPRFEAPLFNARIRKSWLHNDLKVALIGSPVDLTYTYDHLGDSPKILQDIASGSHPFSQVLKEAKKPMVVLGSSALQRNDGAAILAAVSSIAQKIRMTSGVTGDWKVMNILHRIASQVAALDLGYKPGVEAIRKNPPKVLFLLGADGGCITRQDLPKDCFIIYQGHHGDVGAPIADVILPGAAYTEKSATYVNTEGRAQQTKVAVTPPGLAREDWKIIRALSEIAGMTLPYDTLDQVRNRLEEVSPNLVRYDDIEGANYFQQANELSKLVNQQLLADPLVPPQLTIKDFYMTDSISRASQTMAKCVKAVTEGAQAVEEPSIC

One experiment addresses GST-PHB2 (UniProt Q99623). Put plainly: pull-down; purified GST-PHB2 incubated with HCT116 and HT-29 cell lysates at 4 °C for 4 h, GST-Tag Purification Resin, elution, western blot; only the target purified.
Experiment [1] deals with Prohibitin 2 (PHB2) (human (endogenous in HCT116 and HT-29)) (UniProt Q99623). Put plainly: co-IP; endogenous proteins; HCT116 and HT-29 whole-cell lysates (1 mg total protein), target antibody (3 ug) at 4 °C overnight, protein A/G agarose beads 4 h at 4 °C, western blot; IgG as negative control; also cells with control or PHB2 shRNA and with control siRNA.
The next experiment addresses Flag-PHB2 (UniProt Q99623). As to the kind of experiment: co-IP; NCM460 cells co-transfected with Flag-PHB2 and HA-NDUFS1 plasmids; whole-cell lysates, anti-Flag and anti-HA immunoprecipitation, western blot.

These are yes or no findings as the source states them, for the method shown. Binding seen in cells or lysates may run through a third protein. Some results given as binding are weak or reduced against the parent protein; the word gives no strength.

As to “NADH:ubiquinone oxidoreductase core subunit S1 (NDUFS1) (from UniProt P28331 24-727)”, the binding result (with GST-PHB2; in experiment [1]) was “binds” each time.
For HA-NDUFS1 (from UniProt P28331 24-727), in the experiment with Flag-PHB2, the binding result is recorded as “binds”.
